# Laboratory results taken from PubChem BioAssay AID1345085 (National Center for Advancing Translational Sciences (NCATS), 2018).
# Inconclusive means that the source gave no clear call. Such entries were picked first, then a sample of the others. Where the call is inconclusive, the potency comes from a doubtful curve fit. Calls of active or inactive are those of the source. Calls follow the shape of the dose curve; as a rule, active = well fitted cell-killing curve with a large enough effect; inconclusive = small, poorly fitted or top-dose-only effect, or effect the other way; inactive = no such curve, though single readings can be large or run the other way.
# Tested on: Es-2
# Test: Confirmatory qHTS for gynecologic anti-cancer compounds from libraries of approved drugs and bioactive compounds; also: nearly all actives have a fitted effect of over 55% in size
# Conditions: gynecologic cancer cell panel viability, ATPlite luminescence, 48 h; series mostly up to 57.6 µM
# In short: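 Cells (1,000/well) were plated, left 16 h at 37 C/5% CO2, then given compound at 11 concentrations (1:3) from 57.5 uM to 0.977 nM for 48 h. ATPlite luminescence after 15 min at room temperature gave IC50 values.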
# Potency is read from the fitted curve at half-maximal effect.
row,Compound,Potency
1,Cc1nc(NC(=O)N2CCCC2C(N)=O)sc1-c1csc(C(C)(C)C)n1 (stereo not drawn),"inconclusive: 685 nM [cytotoxic, partial curve, poor fit]"
2,O=C(Nc1cccnc1)N1CCC(Cc2cccc(Oc3ccc(C(F)(F)F)cn3)c2)CC1,"inconclusive: 9680 nM [cytotoxic, full curve]"
3,CCCC(Nc1nc(-c2ccc(NC(=O)NCC)c(OC)c2)ncc1C)c1cccnc1 (stereo not drawn),active: 193 nM
4,CNc1nc(Nc2ccc(C(=O)N3CCOCC3)cc2OC)ncc1Cl,inactive
5,CCCCc1nc2cc(/C=C/C(=O)NO)ccc2n1CCN(CC)CC,active: 1090 nM
6,c1nc2nc(Nc3ccc(N4CCOCC4)cc3)nc(NC3CCCCC3)c2[nH]1,"inconclusive: 749 nM [cytotoxic, single point]"
7,CCCC(=O)O[C@]1(C(=O)CCl)[C@@H](C)C[C@H]2[C@@H]3CCC4=CC(=O)C=C[C@]4(C)[C@@]3(F)C(=O)C[C@@]21C,"inconclusive: 21700 nM [cytotoxic, partial curve]"
8,CN[C@@H](C)C(=O)N[C@H]1CN(C(=O)CC(C)C)CC[C@H]2CC[C@@H](C(=O)NC(c3ccccc3)c3ccccc3)N2C1=O,"inconclusive: 968 nM [cytotoxic, full curve]"
9,NCCOc1cc(C(=O)Nc2cc(OCCN)c3ccccc3n2)nc(C(=O)Nc2cc(OCCN)c3ccccc3n2)c1,inactive
10,O=C(NCC(O)CO)c1ccncc1Nc1ccc(I)cc1F (stereo not drawn),"inconclusive: 3430 nM [cytotoxic, full curve]"
11,CN(C)C(CCOc1cccc2ccccc12)c1ccccc1 (stereo not drawn),inactive
12,CC(C)n1c(/C=C/[C@@H](O)C[C@@H](O)CC(=O)O)c(-c2ccc(F)cc2)c2ccccc21,active: 5440 nM
13,CN1C2CCC1CC(OC(=O)[C@H](CO)c1ccccc1)C2 (stereo partly drawn),"inconclusive: 273 nM [rising, partial curve, poor fit]"
14,CC(C)CC(=O)Nc1n[nH]c2c1CN(C(=O)C1CCN(C)CC1)C2(C)C,"inconclusive: 9680 nM [cytotoxic, full curve]"
15,COc1c(C)c2c(c(O)c1C/C=C(\C)CCC(=O)OCCN1CCOCC1)C(=O)OC2,"inconclusive: 3430 nM [cytotoxic, full curve, poor fit]"
16,O=C(Nc1cn[nH]c1-c1nc2ccc(CN3CCOCC3)cc2[nH]1)NC1CC1,"inconclusive: 544 nM [cytotoxic, single point]"
17,O=C(CCCCCCC(=O)Nc1ccccc1)NO,active: 3060 nM
18,COC(C)(C)CCn1nc(Nc2c(C)cccc2C)c2cnc(Nc3ccc(OCCN4CCCC4)c(F)c3)nc21,inactive
19,CN(C)c1ccc(-c2nc3ncc(Cl)c(N4CCN(CC(=O)Nc5nccs5)CC4)c3[nH]2)cc1,"inconclusive: 5950 nM [cytotoxic, single point]"
20,Nc1nccc(Oc2ccc(NC(=O)c3c[nH]cc(-c4ccc(F)cc4)c3=O)cc2F)c1Cl,active: 34300 nM
21,Cc1ccc(-n2[nH]c(C)c(N=Nc3cccc(-c4cccc(C(=O)O)c4)c3O)c2=O)cc1C,"inconclusive: 27300 nM [cytotoxic, partial curve]"
22,CN(C[C@@H]1COCCO1)S(=O)(=O)Nc1ccc2ccc3ncc(-c4cnn(C)c4)cc3c(=O)c2c1,inactive
23,COc1cc(Nc2ncc(F)c(Nc3ccc4c(n3)N(COP(=O)(O)O)C(=O)C(C)(C)O4)n2)cc(OC)c1OC,"inconclusive: 485 nM [cytotoxic, partial curve, poor fit]"
24,CCOc1ccc(Nc2nc(-c3c(C)nc4ccccn34)cs2)cc1,"inconclusive: 54.4 nM [cytotoxic, full curve, poor fit]"
25,Cn1cnc2c(F)c(Nc3ccc(Br)cc3F)c(C(=O)NOCCO)cc21,"inconclusive: 685 nM [cytotoxic, full curve]"
26,NC(=O)c1cccc2cn(-c3ccc([C@@H]4CCCNC4)cc3)nc12,"inconclusive: 1220 nM [cytotoxic, single point]"
27,CC(=O)NCC(=O)N1C2CCC1c1cc(Nc3ncc(C(F)(F)F)c(NC4CCC4)n3)ccc12 (stereo not drawn),"inconclusive: 137 nM [cytotoxic, full curve, poor fit]"
28,CC(C)(C(=O)NCC(F)(F)C(F)(F)F)C(=O)NC1C(=O)Nc2ccccc2-c2ccccc21 (stereo not drawn),"inconclusive: 385 nM [cytotoxic, full curve, poor fit]"

# Reprinted at random: two compounds from above
row,Compound,Potency
18,COC(C)(C)CCn1nc(Nc2c(C)cccc2C)c2cnc(Nc3ccc(OCCN4CCCC4)c(F)c3)nc21,inactive
17,O=C(CCCCCCC(=O)Nc1ccccc1)NO,active: 3060 nM
